# Reference: the supplement of paper PMC12889115
# This is one part of the list. These are raw signals, not scaled to a control.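 In the initial screen, polymyxin B was used at a concentration that permeabilizes Salmonella's outer membrane but not its inner membrane. Maximum growth was set by DMSO wells with or without polymyxin B. Since plates varied, data were ranked per plate, and compounds giving the lowest OD600 advanced as hits.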
# System: Salmonella enterica serovar Typhimurium SL1344
# Assay: bacterial growth OD600 after 18 h with compound and polymyxin B; higher = more bacterial growth (less inhibition)
# Conditions: 50 µM, Mueller-Hinton broth
Compound,bacterial growth OD600 (polymyxin B 0.75 µg/mL),bacterial growth OD600 (polymyxin B 1 µg/mL)
O=C(NC1CCOCC1)C1CCN(c2nc(-c3ccccc3)nc3c2CCC3)CC1,0.75,–
COc1cccc(CCC2CCCN(C(=O)C3CCN(C(C)=O)CC3)C2)c1 (centres undefined),0.844,–
CCNC(=O)c1cn(CC(C)C)cc(C(=O)N2CCCCC2CC)c1=O (centres undefined),0.827,–
O=C1N(Cc2ccccc2F)CCCC1(O)CN1CCOCC1 (centres undefined),–,0.96
CN(Cc1nc(N2CCOCC2)c2ccc(Cl)cc2n1)Cc1ccccc1C(F)(F)F,0.602,–
C=CCC(O)(CC=C)C(C)NC(=O)CCC1(Cc2ccc(Cl)cc2)CCC(=O)N1 (centres undefined),0.921,–
CO[C@H]1[C@H](NC(=O)COc2ccccc2)c2ccccc2C12CCN(C(=O)C1CCCCC1)CC2,0.006,–
COc1cc2nc(-c3cc4c(c(OC)c3)OCCN(C(=O)c3cccs3)C4)cc(C)c2cc1OC,0.646,–
Cc1ncsc1CCC(=O)N1CCOC(CCCC(C)C)C1 (centres undefined),–,1
CCC1CCCCN1C(=O)CCC1(Cc2ccc(F)c(OC)c2)CCC(=O)N1 (centres undefined),0.771,–
CCOC(=O)C1(Cc2ccc(F)cc2F)CCCN(C(C)=O)C1 (centres undefined),–,0.834
COc1cc2nc(N(C)C)c(CNCc3cccc(Cl)c3)cc2c(OC)c1OC,0.816,–
CN(C)C(=O)c1ccc(N2CCC(NCCC(c3ccccc3)c3ccco3)CC2)cc1 (centres undefined),1.01,–
O=C(c1ccc(N2CCOCC2)cc1)N(Cc1ccncc1)Cc1cccc(OCCc2ccc(F)cc2)c1,-0.001,–
Cc1c[nH]c(CN(C)C(=O)C2(N3CCCCC3)Cc3ccccc3C2)n1,0.304,–
C=CCNCc1cn(-c2ccc(OC)cc2)nc1-c1ccccc1Cl,–,0.599
Cc1ccc(CN2CCN(Cc3ccccc3C)CC2CCO)o1 (centres undefined),–,1.05
O=C(CCC1CCCN(C(=O)c2ccc3ccccc3c2)C1)NC1CC1 (centres undefined),–,0.89
CC(c1cccs1)N(C)C(=O)CC1(c2ccccc2)CC(=O)N(CCCOc2cccnc2)C1=O (centres undefined),0.763,–

# Ordered by SMILES length (descending): some entries from above.
Compound,bacterial growth OD600 (polymyxin B 0.75 µg/mL),bacterial growth OD600 (polymyxin B 1 µg/mL)
CC(c1cccs1)N(C)C(=O)CC1(c2ccccc2)CC(=O)N(CCCOc2cccnc2)C1=O (centres undefined),0.763,–
CN(C)C(=O)c1ccc(N2CCC(NCCC(c3ccccc3)c3ccco3)CC2)cc1 (centres undefined),1.01,–
CCNC(=O)c1cn(CC(C)C)cc(C(=O)N2CCCCC2CC)c1=O (centres undefined),0.827,–
